Laboratory results taken from the supplement of paper PMC8728848.
This is one part of the list.

Tests used:
Assay in all cases: glycan array binding signal (z-score within array); higher = stronger binding
Settings in all cases: glycan notation: IUPAC condensed, linker removed
[1] = target: Fuc(a1-3)GlcNAc
Procedure, shortened: (§1)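 Glycan array data came from 3228 arrays in the Consortium for Functional Glycomics database, and only arrays with an available protein sequence were kept. Glycan names were put into IUPAC-condensed notation, and columns mapping to the same glycan were averaged. The binding signal is a within-array Z-score, averaged across arrays of one protein sequence run at different concentrations or buffers and across linkers. A negative Z-score can be read as non-binding.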

[2] = target: Fuc(a1-3)[Gal(b1-4)]Glc6S
Procedure, shortened: as §1

[3] = target: Fuc(a1-3)[Gal(b1-4)]GlcNAc
Procedure, shortened: as §1

[4] = target: Fuc(a1-3)[Gal(b1-4)]GlcNAc(b1-2)Man
Procedure, shortened: as §1

[5] = target: Fuc(a1-3)[Gal(b1-4)]GlcNAc(b1-2)Man(a1-3)[Fuc(a1-3)[Gal(b1-4)]GlcNAc(b1-2)Man(a1-6)]Man(b1-4)GlcNAc(b1-4)GlcNAc
Procedure, shortened: as §1

[6] = target: Fuc(a1-3)[Gal(b1-4)]GlcNAc(b1-2)Man(a1-3)[Fuc(a1-3)[Gal(b1-4)]GlcNAc(b1-2)Man(a1-6)]Man(b1-4)GlcNAc(b1-4)[Fuc(a1-6)]GlcNAc
Procedure, shortened: as §1

[7] = target: Fuc(a1-3)[Gal(b1-4)]GlcNAc(b1-3)Gal(b1-3)[Fuc(a1-4)]GlcNAc
Procedure, shortened: as §1

[8] = target: Fuc(a1-3)[Gal(b1-4)]GlcNAc(b1-3)Gal(b1-4)[Fuc(a1-3)]GlcNAc
Procedure, shortened: as §1

[9] = target: Fuc(a1-3)[Gal(b1-4)]GlcNAc(b1-3)Gal(b1-4)[Fuc(a1-3)]GlcNAc(b1-3)Gal(b1-4)[Fuc(a1-3)]GlcNAc
Procedure, shortened: as §1

[10] = target: Fuc(a1-3)[Gal(b1-4)]GlcNAc(b1-3)GalNAc
Procedure, shortened: as §1

[11] = target: Fuc(a1-3)[Gal(b1-4)]GlcNAc(b1-6)GalNAc
Procedure, shortened: as §1

[12] = target: Fuc(a1-3)[Gal(b1-4)]GlcNAc(b1-6)[Gal(b1-3)GlcNAc(b1-3)]Gal(b1-4)Glc
Procedure, shortened: as §1

[13] = target: Fuc(a1-3)[Gal(b1-4)]GlcNAc6S
Procedure, shortened: as §1

[14] = target: Fuc(a1-3)[Gal3S(b1-4)]Glc
Procedure, shortened: as §1

[15] = target: Fuc(a1-3)[Gal3S(b1-4)]GlcNAc
Procedure, shortened: as §1

[16] = target: Fuc(a1-3)[Gal3S(b1-4)]GlcNAc6S
Procedure, shortened: as §1

[17] = target: Fuc(a1-3)[GalNAc(b1-4)]GlcNAc
Procedure, shortened: as §1

[18] = target: Fuc(a1-3)[GalNAc(b1-4)]GlcNAc6S
Procedure, shortened: as §1

[19] = target: Fuc(a1-4)GlcNAc
Procedure, shortened: as §1

[20] = target: Fuc(b1-3)GlcNAc
Procedure, shortened: as §1

[21] = target: Gal(a1-2)Gal
Procedure, shortened: as §1

[22] = target: Gal(a1-3)Gal
Procedure, shortened: as §1

[23] = target: Gal(a1-3)Gal(b1-3)GlcNAc
Procedure, shortened: as §1

[24] = target: Gal(a1-3)Gal(b1-3)GlcNAc(b1-2)Man
Procedure, shortened: as §1

[25] = target: Gal(a1-3)Gal(b1-3)GlcNAc(b1-2)Man(a1-3)[Gal(a1-3)Gal(b1-3)GlcNAc(b1-2)Man(a1-6)]Man(b1-4)GlcNAc(b1-4)GlcNAc
Procedure, shortened: as §1

[26] = target: Gal(a1-3)Gal(b1-3)GlcNAc(b1-3)GalNAc
Procedure, shortened: as §1

[27] = target: Gal(a1-3)Gal(b1-3)GlcNAc(b1-6)GalNAc
Procedure, shortened: as §1

[28] = target: Gal(a1-3)Gal(b1-3)[Fuc(a1-4)]GlcNAc(b1-2)Man(a1-3)[Gal(a1-3)Gal(b1-3)[Fuc(a1-4)]GlcNAc(b1-2)Man(a1-6)]Man(b1-4)GlcNAc(b1-4)GlcNAc
Procedure, shortened: as §1

[29] = target: Gal(a1-3)Gal(b1-4)Glc
Procedure, shortened: as §1

[30] = target: Gal(a1-3)Gal(b1-4)GlcNAc
Procedure, shortened: as §1

[31] = target: Gal(a1-3)Gal(b1-4)GlcNAc(b1-2)Man
Procedure, shortened: as §1

[32] = target: Gal(a1-3)Gal(b1-4)GlcNAc(b1-2)Man(a1-3)[Gal(a1-3)Gal(b1-4)GlcNAc(b1-2)Man(a1-6)]Man(b1-4)GlcNAc(b1-4)GlcNAc
Procedure, shortened: as §1

[33] = target: Gal(a1-3)Gal(b1-4)GlcNAc(b1-3)GalNAc
Procedure, shortened: as §1

[34] = target: Gal(a1-3)Gal(b1-4)GlcNAc(b1-6)GalNAc
Procedure, shortened: as §1

[35] = target: Gal(a1-3)Gal(b1-4)[Fuc(a1-3)]GlcNAc
Procedure, shortened: as §1

[36] = target: Gal(a1-3)Gal(b1-4)[Fuc(a1-3)]GlcNAc(b1-2)Man(a1-3)[Gal(a1-3)Gal(b1-4)[Fuc(a1-3)]GlcNAc(b1-2)Man(a1-6)]Man(b1-4)GlcNAc(b1-4)GlcNAc
Procedure, shortened: as §1

[37] = target: Gal(a1-3)GalNAc
Procedure, shortened: as §1

[38] = target: Gal(a1-3)[Gal(a1-4)]Gal(b1-4)GlcNAc
Procedure, shortened: as §1

[39] = target: Gal(a1-4)Gal(b1-3)GlcNAc(b1-2)Man(a1-3)[Gal(a1-4)Gal(b1-3)GlcNAc(b1-2)Man(a1-6)]Man(b1-4)GlcNAc(b1-4)GlcNAc
Procedure, shortened: as §1

[40] = target: Gal(a1-4)Gal(b1-4)Glc
Procedure, shortened: as §1

[41] = target: Gal(a1-4)Gal(b1-4)GlcNAc
Procedure, shortened: as §1

[42] = target: Gal(a1-4)Gal(b1-4)GlcNAc(b1-2)Man(a1-3)[Gal(a1-4)Gal(b1-4)GlcNAc(b1-2)Man(a1-6)]Man(b1-4)GlcNAc(b1-4)GlcNAc
Procedure, shortened: as §1

[43] = target: Gal(a1-4)Gal(b1-4)GlcNAc(b1-3)Gal(b1-4)Glc
Procedure, shortened: as §1

[44] = target: Gal(a1-4)GlcNAc
Procedure, shortened: as §1

[45] = target: Gal(a1-6)Glc
Procedure, shortened: as §1

B1: PX14375D-bvu-513-34-513 (Bacteroides vulgatus) (protein)
chain: TEDTFWKDETDFNLALTSCYTPLKNALNGGYYGTRGVMLRIARADEVDFRNDISDVYTVNRFTNSNTNSLTQGMFYQFYNALYRTNSIMQKLEEKKEQFSTDFQNSVKGECLFIRGFYLFQLAKEFKDAPLRLTASQSPSTFPLAKSSQADIWAQAKEDLKTAASLLPITNKIGKPTQGAAYAALGKIYVYEENWQEAINVLEPLTQNPYTYKLVEDFNWNFDDTHENNAESIFELLIEDVGGTDLWGDGENINSTQSNTRPKEYAAAEVGGWYEANPTQQIMDIFWKEKDKDGNFDYRARCSVAWDYEGCTYYQRPFREVFAQDKWKTYWILKYQNWKTQKDEPAPPKSFINERAIRYADVLLMLAEAYMNKGALDTSIGYINQIRRRANLNDYSGPITKEGVFEDLVHQRAIEFFVEGERFYDLRRWGLLEQTLKTCDDTRYKNYQTGKSDNINKFNYFPIPAKELDTNPLCTPSEGW
- glycan array binding signal (z-score) [1]: -0.032
- glycan array binding signal (z-score) [2]: -0.277
- glycan array binding signal (z-score) [3]: -0.088
- glycan array binding signal (z-score) [4]: 2.96
- glycan array binding signal (z-score) [5]: -0.56
- glycan array binding signal (z-score) [6]: 0.751
- glycan array binding signal (z-score) [7]: -0.069
- glycan array binding signal (z-score) [8]: -0.273
- glycan array binding signal (z-score) [9]: -0.287
- glycan array binding signal (z-score) [10]: -0.531
- glycan array binding signal (z-score) [11]: 0.851
- glycan array binding signal (z-score) [12]: -0.085
- glycan array binding signal (z-score) [13]: 0.649
- glycan array binding signal (z-score) [14]: -1.12
- glycan array binding signal (z-score) [15]: -0.168
- glycan array binding signal (z-score) [16]: -0.673
- glycan array binding signal (z-score) [17]: 0.107
- glycan array binding signal (z-score) [18]: 0.126
- glycan array binding signal (z-score) [19]: 0.758
- glycan array binding signal (z-score) [20]: 0.388
- glycan array binding signal (z-score) [21]: 0.16
- glycan array binding signal (z-score) [22]: -0.16
- glycan array binding signal (z-score) [23]: -0.197
- glycan array binding signal (z-score) [24]: -0.81
- glycan array binding signal (z-score) [25]: 0.315
- glycan array binding signal (z-score) [26]: -1.09
- glycan array binding signal (z-score) [27]: -0.932
- glycan array binding signal (z-score) [28]: 0.674
- glycan array binding signal (z-score) [29]: -0.855
- glycan array binding signal (z-score) [30]: -0.865
- glycan array binding signal (z-score) [31]: -0.309
- glycan array binding signal (z-score) [32]: -0.241
- glycan array binding signal (z-score) [33]: -0.543
- glycan array binding signal (z-score) [34]: 0.081
- glycan array binding signal (z-score) [35]: 0.144
- glycan array binding signal (z-score) [36]: 0.281
- glycan array binding signal (z-score) [37]: 0.023
- glycan array binding signal (z-score) [38]: 2.92
- glycan array binding signal (z-score) [39]: 0.997
- glycan array binding signal (z-score) [40]: 0.573
- glycan array binding signal (z-score) [41]: 0.227
- glycan array binding signal (z-score) [42]: 0.45
- glycan array binding signal (z-score) [43]: -1.03
- glycan array binding signal (z-score) [44]: -0.604
- glycan array binding signal (z-score) [45]: 0.518
